Data as given in publication PMC12333948.
Results are given in words; binding and its absence hold for the method and conditions named. In cells and extracts the contact can be indirect. Some results given as binding are weak or reduced against the parent protein; the word gives no strength.

The chains behind the UniProt entries cited, without tags or fusion partners. Residues count along the entry.
UniProt P02545, residues 1-646: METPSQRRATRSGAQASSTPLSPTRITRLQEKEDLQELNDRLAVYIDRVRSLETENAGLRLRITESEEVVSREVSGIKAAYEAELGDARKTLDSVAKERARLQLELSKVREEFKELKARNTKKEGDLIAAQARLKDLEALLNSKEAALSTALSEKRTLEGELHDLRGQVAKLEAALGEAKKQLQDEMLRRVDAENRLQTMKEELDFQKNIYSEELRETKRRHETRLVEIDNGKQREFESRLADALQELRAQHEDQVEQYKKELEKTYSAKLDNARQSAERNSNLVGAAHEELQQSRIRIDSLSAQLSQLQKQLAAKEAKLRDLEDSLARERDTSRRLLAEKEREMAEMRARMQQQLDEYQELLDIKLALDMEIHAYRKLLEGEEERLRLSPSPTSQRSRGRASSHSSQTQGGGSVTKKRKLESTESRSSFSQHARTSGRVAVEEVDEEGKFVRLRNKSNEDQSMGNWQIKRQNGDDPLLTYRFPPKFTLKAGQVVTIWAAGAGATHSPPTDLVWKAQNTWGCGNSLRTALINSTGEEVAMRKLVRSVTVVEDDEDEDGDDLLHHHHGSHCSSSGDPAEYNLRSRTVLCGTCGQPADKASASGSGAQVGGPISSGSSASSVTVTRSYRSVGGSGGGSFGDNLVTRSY
UniProt P48679, residues 1-647: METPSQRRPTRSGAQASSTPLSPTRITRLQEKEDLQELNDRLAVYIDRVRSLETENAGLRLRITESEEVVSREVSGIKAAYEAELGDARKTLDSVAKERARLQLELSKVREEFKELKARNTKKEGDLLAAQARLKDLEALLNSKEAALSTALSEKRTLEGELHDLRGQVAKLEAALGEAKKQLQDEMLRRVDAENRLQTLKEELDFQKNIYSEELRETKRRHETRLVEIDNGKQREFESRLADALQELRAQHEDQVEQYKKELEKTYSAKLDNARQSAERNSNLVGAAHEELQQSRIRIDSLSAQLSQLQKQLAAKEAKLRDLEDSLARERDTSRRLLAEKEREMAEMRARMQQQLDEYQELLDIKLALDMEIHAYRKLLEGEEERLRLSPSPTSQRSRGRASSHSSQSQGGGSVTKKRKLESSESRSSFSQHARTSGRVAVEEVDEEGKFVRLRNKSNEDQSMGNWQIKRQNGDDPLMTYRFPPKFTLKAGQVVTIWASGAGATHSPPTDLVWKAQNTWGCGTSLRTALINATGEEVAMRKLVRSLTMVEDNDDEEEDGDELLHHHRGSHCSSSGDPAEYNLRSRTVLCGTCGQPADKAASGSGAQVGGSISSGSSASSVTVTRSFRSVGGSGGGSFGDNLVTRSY

Columns and labels:
[1] = molecular target: His-tagged CUL3 (Cullin-3), expressed in HEK293 cells (UniProt Q13618); test: co-IP; HEK293 cells transfected with His-CUL3; lysate (1% Triton X-100, 150 mmol/L NaCl, pH 7.5) incubated with anti-His-tag magnetic beads overnight at 4°C, IgG as control; Western blot; for Rab5 cells also treated with siRNA to Rab5c or nonspecific control for 72 hours
[2] = molecular target: His-tagged CUL3 (Cullin-3), expressed in A10 cells (UniProt Q13618); test: co-IP; A10 rat aortic smooth muscle cells; IP with IgG or anti-His antibody, Western blot; cells treated with nonspecific control siRNA or siRNA targeting Lmna

Substance | binding [1] | binding [2]
Lamin A/C, endogenous in HEK293 cells (from UniProt P02545 1-646) | binds | 
Lamin A/C, endogenous in A10 cells (from UniProt P48679 1-647) |  | binds
